Laboratory results published in patent US8304236B2, “Modified biotin-binding protein” (Japan Tobacco Inc., priority 2008, dated 2012).
pKd: −log10 of the molar value. At least one compound was matched to its structure with a doubt left.

Amino acid sequences for entries named in this document (tags omitted).
UniProt B9A0T7, entry or part of it D40N: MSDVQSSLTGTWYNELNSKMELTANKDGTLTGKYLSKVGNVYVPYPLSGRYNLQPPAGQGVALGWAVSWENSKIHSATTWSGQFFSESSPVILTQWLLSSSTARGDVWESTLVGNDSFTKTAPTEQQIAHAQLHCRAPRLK

Experiments:
Assay in all cases: Biacore 3000 iminobiotin binding test (Example 2)
[1] = target: T1, tamavidin 2 (TM2), wild type, SEQ ID NO: 2, Pleurotus cornucopiae (Pleurotus cornucopiae, UniProt B9A0T7); conditions: read-out: KD to iminobiotin; KD = kd/ka; Iminobiotin-BSA analyte; pH 11, 25° C.
T1 sequence (B9A0T7 1-141): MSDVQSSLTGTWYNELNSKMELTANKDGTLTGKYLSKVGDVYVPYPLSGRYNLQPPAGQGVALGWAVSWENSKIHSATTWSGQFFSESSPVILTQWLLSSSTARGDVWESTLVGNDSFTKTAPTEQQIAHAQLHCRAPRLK
Procedure: These samples were diluted with 10 mM acetate buffer (pH 5, Biacore) into about 50 μg/mL.
Immobilization was performed at 25° C. and a flow rate of 10 μL/min using HBS-EP (Biacore) as a running buffer. The TM2 and the TM2 mutant (about 4000 to 8000 RU) were immobilized on CM5 sensor chips (Biacore) by amine coupling. The activating time was set to 10 minutes.
The specific interaction was measured using iminobiotin BSA as an analyte (a material flowing in a flow channel) at 25° C. and a flow rate of 20 μL/min and using a CAPS buffer (50 mM CAPS, 150 mM NaCl, 0.005% Tween 20, pH 11) as the running buffer. Iminobiotin BSA was produced as follows: A highly purified BSA (Sigma, 2 mg) and NHS-iminobiotin (Pierce, 1 mg) were dissolved in 50 mM sodium borate (pH 8.0, 1 mL), followed by incubation at 4° C. for 2 hours. […] Subsequently, the iminobiotin-BSA produced by the process described above was similarly measured with the same flow cell.
Each constant of samples showing interaction was calculated using analysis software BIAevaluation ver. […] The dissociation constant (KD) was determined from kd/ka. […] Accordingly, in the analysis, the Rmax was calculated by conducting local fitting for each concentration, and only the results at concentrations (mainly 18.75 to 75 nM) approximated to the 1:1 (Langmuir) binding model were employed.

[2] = target: tamavidin 2 (TM2) variant TM2 D40N, SEQ ID NO: 20 (Pleurotus cornucopiae, UniProt B9A0T7, D40N); conditions: read-out: KD to iminobiotin; KD = kd/ka; Iminobiotin-BSA analyte; pH 11, 25° C.
[3] = system: tamavidin 2 (TM2) variant TM2 D40N, SEQ ID NO: 20; set-up: species or system Pleurotus cornucopiae; conditions: compared to TM2

N=C1N[C@H]2[C@H](CS[C@H]2CCCCC(=O)O)N1 [iminobiotin]
pKd [1]: 8.01 | pKd [2]: 8.40 | increase of binding rate constant (ka) to iminobiotin compared to TM2 [3]: 40% | decrease of dissociation rate constant (kd) compared to TM2 ([3]; iminobiotin): 45%
